Experimental data: patent US10842874B2, “Sensitization of bacterial cells to quinolone antibiotics” (Massachusetts Institute of Technology, priority 2017, dated 2020)
≈ marks a conversion by molar mass, not a printed value.

How the values were obtained:
E. coli strain MG1655 = test: Minimum inhibitory concentration (MIC) in rich LB medium; type: cell-based; details: Escherichia coli
S. aureus = test: Minimum inhibitory concentration (MIC); type: cell-based; details: Staphylococcus aureus

O=C(O)c1cn(C2CC2)c2cc(N3CCNCC3)c(F)cc2c1=O [ciprofloxacin]
MIC (E. coli strain MG1655): 0.008 to 0.01 µg/mL (≈ 0.0241 to 0.0302 µM)
MIC (S. aureus): 250 µg/mL (≈ 754 µM)
